Here are results for 42 sequences from paper PMC7819943, “Rice protein-binding microarrays: a tool to detect cis-acting elements near promoter regions in rice”.

The list shows a part of the results.

The target in this assay is T1, OsSMF1 (Oryza sativa, UniProt Q6ZLB0 1-436).
T1 sequence: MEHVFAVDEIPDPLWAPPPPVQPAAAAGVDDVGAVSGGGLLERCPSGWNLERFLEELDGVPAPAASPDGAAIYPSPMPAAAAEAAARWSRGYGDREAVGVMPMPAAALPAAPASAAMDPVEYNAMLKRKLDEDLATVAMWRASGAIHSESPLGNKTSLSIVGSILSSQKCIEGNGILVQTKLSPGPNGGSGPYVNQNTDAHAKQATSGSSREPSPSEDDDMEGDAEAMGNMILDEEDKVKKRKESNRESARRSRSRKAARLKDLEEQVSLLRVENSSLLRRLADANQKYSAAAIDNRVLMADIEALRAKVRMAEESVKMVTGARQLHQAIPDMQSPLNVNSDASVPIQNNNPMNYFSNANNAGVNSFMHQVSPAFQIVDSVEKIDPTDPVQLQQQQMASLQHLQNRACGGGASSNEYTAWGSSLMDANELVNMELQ
The experiment in a line: protein-binding microarray (RPBM); PBS, 2% BSA, 51.3 ng/ul salmon testes DNA, 50 uM zinc acetate, 200 nM TF, 25 C, 1 h; high values mean tight binding. Particulars: protein: recombinant; tags: N-terminal polyhistidine and DsRed monomer fusion (pET32a); chain copies: 2; label: CyDye5-dUTP incorporated in the synthesized complementary strand; 3' TTTTT single-stranded linker to array surface; dsDNA, one strand shown. In a few lines:
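Binding signal is reported as fluorescence intensity per feature (arbitrary units) from an Axon 4000B scanner. Incubation used 200 nM of each Ni–NTA-purified, N-terminally polyhistidine- and DsRed-fused transcription factor from E. coli BL21-CodonPlus on a double-stranded custom Agilent array for 1 h at 25 °C, with 50 µM zinc acetate in the buffer, followed by washing.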
On to “ACCAACCAATCCCCGCCCGCCCATCGCCACGTGTCACCCTCGGAGTCACCTAGTGCAG”, for which the binding signal is 31100 fluorescence intensity (a.u.). For the sequence “CGCGCTGCGGTTGCTGACGCTGCCCATCTCGACGCGGAAGCGGAGTCACCTAGTGCAG”, the binding signal was 4520 fluorescence intensity (a.u.). On to “AGATTTGCCACATGCCACGACACGCGACACGCGCGCTTGTCGGAGTCACCTAGTGCAG”, for which the binding signal was 7030 fluorescence intensity (a.u.). Take “TCTCTGATGGATAGGTGACATGGTGTGGTGTGCTTGTTTTCGGAGTCACCTAGTGCAG”: the binding signal was 5300 fluorescence intensity (a.u.).

“AATCATTTTATTTGACTAATACACGTCAGGATTGAATGAGCGGAGTCACCTAGTGCAG”: the binding signal is 4880 fluorescence intensity (a.u.).

“GTTTTCACCCCGATTTTGGTCTACGTGGCGGCTGAGTTAGCGGAGTCACCTAGTGCAG”: the binding signal is 15400 fluorescence intensity (a.u.). In the case of “ATAGCTGCATTCACCGTATCAATGGTTTCATGCACGACCACGGAGTCACCTAGTGCAG”, the binding signal was 3270 fluorescence intensity (a.u.).

For the sequence “CCGCACCTCTCTCTACACGCACGCGTCTCTCCCATCTCCCCGGAGTCACCTAGTGCAG”, the binding signal is 21000 fluorescence intensity (a.u.). For “ATCCCTCAAGTGACTCACCTACTCTAACCGCTCCCCGGCCCGGAGTCACCTAGTGCAG”, the binding signal is 10700 fluorescence intensity (a.u.). Under “CATTTGCATTGCACCAAGAGGAGATCGAGGTGTAGAGTAGCGGAGTCACCTAGTGCAG” stands 32200 fluorescence intensity (a.u.). On to “CTCCATCGCCGCCGCCGACAGCGCCACCAGCTTCGCGAGACGGAGTCACCTAGTGCAG”, for which the binding signal was 3440 fluorescence intensity (a.u.). As to “CTACGCTTCGCACTCACGTGCCACATGGACCGTGTGCGCCCGGAGTCACCTAGTGCAG”, the binding signal is 4020 fluorescence intensity (a.u.).

“GGATCGATCTATCGATCCAGTAGAGGACGTGGCAGCCGCCCGGAGTCACCTAGTGCAG”: the binding signal was 12600 fluorescence intensity (a.u.). Take “GCGGGTGGACAAGGACCGATCTTTGCCGTTGAATCAACGCCGGAGTCACCTAGTGCAG”: the binding signal is 3160 fluorescence intensity (a.u.). “TGAACATAGCTAGGCAATACTAACACGTCCTTACTATGTTCGGAGTCACCTAGTGCAG”: the binding signal was 4530 fluorescence intensity (a.u.). Next, “TGCACGCTGCGGCGTACGTCGCGTGCGCACACGGGAATTTCGGAGTCACCTAGTGCAG”: 3190 fluorescence intensity (a.u.). With “AAGCTGAAAGATTTTACTTGCGTCAGCTCCGGCTACCGTGCGGAGTCACCTAGTGCAG”, the binding signal is 5780 fluorescence intensity (a.u.). As for “TATGAAATATCTTCCGCCTTTCCACATCACGCTTACGCTTCGGAGTCACCTAGTGCAG”, the binding signal is 5520 fluorescence intensity (a.u.).

Take “TTCCCATTCTATAATATGTCACTGAGTTTGTCAAGTTTTACGGAGTCACCTAGTGCAG”: the binding signal was 3390 fluorescence intensity (a.u.). As for “TTGCTGAGTATGGGGTAGGCAATTGGACTTTACTGGACAACGGAGTCACCTAGTGCAG”, the binding signal was 3190 fluorescence intensity (a.u.). Under “TAAGCGCCACATCAGTGCCACGTCGGATGAAGACCGAGTCCGGAGTCACCTAGTGCAG” stands 25000 fluorescence intensity (a.u.); under “CTTCTGATGGTGTGTCAGCACCCTATCAGCTAAACCACCTCGGAGTCACCTAGTGCAG”, 12100 fluorescence intensity (a.u.); under “AAAGTACAATTTATGTCACATTGCCTAGTAGAAATGAGGTCGGAGTCACCTAGTGCAG”, 29200 fluorescence intensity (a.u.). Consider “GGTGCGTCTGACGTGTGGGGCCGGAGGAGATGTGGGGCCTCGGAGTCACCTAGTGCAG”, for which the binding signal is 9040 fluorescence intensity (a.u.). On to “AATTTACAAGGTAAAATTTTATACCACCTTATATACTTTGCGGAGTCACCTAGTGCAG”, for which the binding signal was 4160 fluorescence intensity (a.u.). Regarding “TGAGTTGGCAAGCACTATCGTCATCTGCTCCACAGGAGAGCGGAGTCACCTAGTGCAG”, the binding signal is 5000 fluorescence intensity (a.u.). As to “CGGTTGAATTGTTCTTGGCATCATCGGGTGTAACCGTGTACGGAGTCACCTAGTGCAG”, the binding signal was 3350 fluorescence intensity (a.u.). Next, “TTCCATTCTTCATATTGATGTGGAATCACGAATCATGAGGCGGAGTCACCTAGTGCAG”: 3270 fluorescence intensity (a.u.).

For the sequence “TTAATGACCAGCTTTACTTTTCCGCATTTTGAAAGGCATCCGGAGTCACCTAGTGCAG”, the binding signal was 3300 fluorescence intensity (a.u.). Under “TGACTTTCTCGGATTTAATGCGTGACTTTTCATTCTTCCACGGAGTCACCTAGTGCAG” stands 3590 fluorescence intensity (a.u.). Consider “CCTCCCTGCACTCCAGGCTTTTGCCGTGCAAATCAACCATCGGAGTCACCTAGTGCAG”, for which the binding signal is 22200 fluorescence intensity (a.u.).

For the sequence “AGTATATTGTTCGATCGTCGCATGCACAAGCATATGGCGCCGGAGTCACCTAGTGCAG”, the binding signal was 4180 fluorescence intensity (a.u.).

Turning to “AAGCCGACGCGTGCCCGCCGGGTGCCCAGCTGGCACTCTCCGGAGTCACCTAGTGCAG”, the binding signal was 4130 fluorescence intensity (a.u.). For the sequence “GGCGGTCCATCCACGTGAGGAGGACACAGTTGCAAATTTCCGGAGTCACCTAGTGCAG”, the binding signal is 3980 fluorescence intensity (a.u.). With “GTGGACCGGTGTCGCGCATGTGCGCGTTAATAACCATTTGCGGAGTCACCTAGTGCAG”, the binding signal is 4080 fluorescence intensity (a.u.). Turning to “CGGCGAAAATGACGTGGCAGACGGCCGTTCGCTCTCGGGCCGGAGTCACCTAGTGCAG”, the binding signal is 24500 fluorescence intensity (a.u.). Next, “AACGATTAGTGGCCTAATCATACGATTAGAAAGTTCTCATCGGAGTCACCTAGTGCAG”: 3200 fluorescence intensity (a.u.); “TGCCGTGCCAACTGAGCACCCACGTTGCATCACCGCTTACCGGAGTCACCTAGTGCAG”: 4430 fluorescence intensity (a.u.); “ACCCAAAACCCTCCCCTCTCTCTCTCGCCTCACCACCGCCCGGAGTCACCTAGTGCAG”: 10600 fluorescence intensity (a.u.). Regarding “TCGCCATTGTCTCATGATTCGGTCCATGGTGTCAAGCGTGCGGAGTCACCTAGTGCAG”, the binding signal is 4010 fluorescence intensity (a.u.). Take “TCCTCCCCGCACGCGCACGTCGGCGAGAAGGTCTGGTGGGCGGAGTCACCTAGTGCAG”: the binding signal was 3940 fluorescence intensity (a.u.). Next, “TCCATTAGTCGCAACTGCCATGCATGATTCTGCACCTTGACGGAGTCACCTAGTGCAG”: 3460 fluorescence intensity (a.u.).
